In the supplement of paper PMC10849652:
Some of the results follow.

Chains of the proteins cited; added tags and fusions are not shown. Lines headed by an entry give the natural chain unless they say otherwise; changes in a name come on top.
UniProt A6NIH7: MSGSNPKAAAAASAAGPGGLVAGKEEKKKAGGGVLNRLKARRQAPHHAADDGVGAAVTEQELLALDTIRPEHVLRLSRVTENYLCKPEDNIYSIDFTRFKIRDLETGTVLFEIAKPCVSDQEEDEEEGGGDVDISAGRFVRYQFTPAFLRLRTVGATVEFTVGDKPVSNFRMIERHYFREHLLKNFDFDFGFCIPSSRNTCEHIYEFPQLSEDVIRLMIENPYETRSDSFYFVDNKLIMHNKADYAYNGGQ
UniProt P45974: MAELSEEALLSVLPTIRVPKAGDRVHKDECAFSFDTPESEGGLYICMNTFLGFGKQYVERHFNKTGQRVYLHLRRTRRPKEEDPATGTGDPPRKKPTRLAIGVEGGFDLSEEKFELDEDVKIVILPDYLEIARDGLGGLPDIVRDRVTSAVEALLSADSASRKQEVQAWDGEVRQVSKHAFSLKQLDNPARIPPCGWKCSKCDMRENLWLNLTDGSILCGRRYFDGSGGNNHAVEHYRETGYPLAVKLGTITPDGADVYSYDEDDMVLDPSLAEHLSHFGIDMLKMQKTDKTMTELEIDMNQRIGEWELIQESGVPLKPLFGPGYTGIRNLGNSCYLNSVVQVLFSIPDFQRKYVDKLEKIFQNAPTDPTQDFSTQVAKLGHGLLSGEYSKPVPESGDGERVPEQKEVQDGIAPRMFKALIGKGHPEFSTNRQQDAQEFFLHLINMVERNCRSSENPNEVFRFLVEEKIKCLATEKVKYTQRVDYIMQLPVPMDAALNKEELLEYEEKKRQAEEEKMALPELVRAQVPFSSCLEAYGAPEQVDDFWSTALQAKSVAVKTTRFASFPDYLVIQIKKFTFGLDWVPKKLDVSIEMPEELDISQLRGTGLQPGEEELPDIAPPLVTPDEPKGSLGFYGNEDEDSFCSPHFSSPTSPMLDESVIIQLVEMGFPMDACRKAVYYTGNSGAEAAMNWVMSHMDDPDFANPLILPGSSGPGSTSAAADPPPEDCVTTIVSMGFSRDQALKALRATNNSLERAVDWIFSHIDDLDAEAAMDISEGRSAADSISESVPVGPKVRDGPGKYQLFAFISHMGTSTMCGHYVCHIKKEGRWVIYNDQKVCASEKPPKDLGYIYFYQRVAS
UniProt P13051, whole entry, looked up: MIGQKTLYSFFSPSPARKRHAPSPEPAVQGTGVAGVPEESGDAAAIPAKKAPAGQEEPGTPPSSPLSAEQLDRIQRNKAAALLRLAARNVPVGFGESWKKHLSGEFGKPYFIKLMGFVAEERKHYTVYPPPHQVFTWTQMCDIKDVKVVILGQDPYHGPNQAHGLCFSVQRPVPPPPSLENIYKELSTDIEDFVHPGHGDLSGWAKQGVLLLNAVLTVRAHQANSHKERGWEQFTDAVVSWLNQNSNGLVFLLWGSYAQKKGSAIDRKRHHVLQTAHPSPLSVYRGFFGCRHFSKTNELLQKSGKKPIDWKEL
UniProt Q6UW78: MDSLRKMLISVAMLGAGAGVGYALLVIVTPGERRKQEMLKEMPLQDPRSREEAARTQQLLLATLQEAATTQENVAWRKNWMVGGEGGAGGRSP
UniProt Q9C0B0: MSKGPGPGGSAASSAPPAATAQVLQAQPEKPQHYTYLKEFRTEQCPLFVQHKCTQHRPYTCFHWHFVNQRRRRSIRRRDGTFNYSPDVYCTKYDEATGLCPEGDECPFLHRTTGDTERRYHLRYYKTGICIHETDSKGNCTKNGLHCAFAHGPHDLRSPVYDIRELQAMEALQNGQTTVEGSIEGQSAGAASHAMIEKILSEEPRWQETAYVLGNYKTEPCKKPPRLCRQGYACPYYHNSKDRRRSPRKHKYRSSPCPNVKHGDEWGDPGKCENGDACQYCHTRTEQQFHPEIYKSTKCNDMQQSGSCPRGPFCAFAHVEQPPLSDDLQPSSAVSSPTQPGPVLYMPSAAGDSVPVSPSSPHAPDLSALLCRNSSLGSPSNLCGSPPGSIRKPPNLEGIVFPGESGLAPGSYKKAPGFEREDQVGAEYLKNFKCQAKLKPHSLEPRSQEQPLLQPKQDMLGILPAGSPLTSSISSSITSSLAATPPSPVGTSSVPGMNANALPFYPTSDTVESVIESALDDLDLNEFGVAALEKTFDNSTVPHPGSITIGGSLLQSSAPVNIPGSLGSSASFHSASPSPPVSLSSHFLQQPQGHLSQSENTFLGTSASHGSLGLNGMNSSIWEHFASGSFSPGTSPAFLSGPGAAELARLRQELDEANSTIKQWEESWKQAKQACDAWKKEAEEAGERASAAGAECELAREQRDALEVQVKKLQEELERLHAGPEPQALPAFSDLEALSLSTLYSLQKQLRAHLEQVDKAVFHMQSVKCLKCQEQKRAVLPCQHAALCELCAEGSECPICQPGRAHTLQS
UniProt P17480: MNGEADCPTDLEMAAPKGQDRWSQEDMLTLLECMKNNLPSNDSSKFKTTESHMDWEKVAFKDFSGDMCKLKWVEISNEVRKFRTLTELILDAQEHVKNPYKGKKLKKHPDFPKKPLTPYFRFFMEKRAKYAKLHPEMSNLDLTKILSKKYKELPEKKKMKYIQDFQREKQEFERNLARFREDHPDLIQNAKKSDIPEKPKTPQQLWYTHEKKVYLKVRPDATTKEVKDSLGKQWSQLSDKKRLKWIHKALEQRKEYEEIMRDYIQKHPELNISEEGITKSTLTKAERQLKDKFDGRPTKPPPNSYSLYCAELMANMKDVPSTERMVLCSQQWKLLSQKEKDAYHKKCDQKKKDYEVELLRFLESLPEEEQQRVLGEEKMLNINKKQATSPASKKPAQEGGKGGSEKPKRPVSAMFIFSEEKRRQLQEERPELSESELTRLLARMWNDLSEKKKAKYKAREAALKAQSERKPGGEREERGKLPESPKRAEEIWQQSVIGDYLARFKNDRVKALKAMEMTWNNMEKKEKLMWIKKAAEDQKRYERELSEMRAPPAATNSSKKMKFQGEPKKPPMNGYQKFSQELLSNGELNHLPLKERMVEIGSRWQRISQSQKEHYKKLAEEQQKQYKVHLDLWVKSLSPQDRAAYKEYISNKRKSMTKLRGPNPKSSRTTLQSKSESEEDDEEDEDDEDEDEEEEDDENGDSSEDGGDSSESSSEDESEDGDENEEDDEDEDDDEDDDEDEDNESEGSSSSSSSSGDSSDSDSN
UniProt O14949: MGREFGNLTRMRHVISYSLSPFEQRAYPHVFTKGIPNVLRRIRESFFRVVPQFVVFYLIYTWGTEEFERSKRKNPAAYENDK
UniProt Q9BTM9: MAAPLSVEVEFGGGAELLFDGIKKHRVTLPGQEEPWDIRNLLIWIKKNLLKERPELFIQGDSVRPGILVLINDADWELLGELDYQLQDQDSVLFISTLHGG
UniProt Q7Z6J8: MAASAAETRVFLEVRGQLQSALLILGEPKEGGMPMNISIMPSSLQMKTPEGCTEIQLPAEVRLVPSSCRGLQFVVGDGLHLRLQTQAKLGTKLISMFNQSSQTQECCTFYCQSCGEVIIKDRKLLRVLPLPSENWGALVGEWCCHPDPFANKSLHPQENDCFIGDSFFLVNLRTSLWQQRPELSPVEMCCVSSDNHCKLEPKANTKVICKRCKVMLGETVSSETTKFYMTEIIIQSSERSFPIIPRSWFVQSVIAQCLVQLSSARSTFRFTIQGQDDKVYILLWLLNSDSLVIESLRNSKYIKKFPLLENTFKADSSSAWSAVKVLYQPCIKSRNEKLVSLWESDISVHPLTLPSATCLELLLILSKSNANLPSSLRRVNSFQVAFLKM
UniProt O00124: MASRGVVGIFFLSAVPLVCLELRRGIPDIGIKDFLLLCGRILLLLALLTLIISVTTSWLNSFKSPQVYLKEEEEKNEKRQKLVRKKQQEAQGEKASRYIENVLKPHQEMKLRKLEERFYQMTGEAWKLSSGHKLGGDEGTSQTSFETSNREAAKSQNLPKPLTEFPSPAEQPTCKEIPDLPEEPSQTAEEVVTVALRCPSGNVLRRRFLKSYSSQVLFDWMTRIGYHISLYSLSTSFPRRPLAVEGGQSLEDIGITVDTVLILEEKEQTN
UniProt P61960, whole entry, looked up: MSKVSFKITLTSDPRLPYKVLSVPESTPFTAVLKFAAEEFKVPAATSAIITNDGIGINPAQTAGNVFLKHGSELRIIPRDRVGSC
UniProt Q6PHR2: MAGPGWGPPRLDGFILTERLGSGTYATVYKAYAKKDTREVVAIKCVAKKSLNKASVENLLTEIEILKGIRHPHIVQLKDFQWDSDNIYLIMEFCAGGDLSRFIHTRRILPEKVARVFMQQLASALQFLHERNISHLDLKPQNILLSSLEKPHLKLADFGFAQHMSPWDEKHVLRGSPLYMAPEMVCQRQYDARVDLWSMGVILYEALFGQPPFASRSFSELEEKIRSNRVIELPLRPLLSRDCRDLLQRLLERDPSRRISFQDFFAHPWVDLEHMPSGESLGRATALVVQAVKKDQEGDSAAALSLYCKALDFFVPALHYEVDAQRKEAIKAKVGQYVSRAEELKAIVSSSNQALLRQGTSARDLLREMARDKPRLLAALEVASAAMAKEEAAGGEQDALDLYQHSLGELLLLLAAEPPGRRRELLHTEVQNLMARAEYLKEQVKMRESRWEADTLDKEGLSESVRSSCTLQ
UniProt Q8WVY7: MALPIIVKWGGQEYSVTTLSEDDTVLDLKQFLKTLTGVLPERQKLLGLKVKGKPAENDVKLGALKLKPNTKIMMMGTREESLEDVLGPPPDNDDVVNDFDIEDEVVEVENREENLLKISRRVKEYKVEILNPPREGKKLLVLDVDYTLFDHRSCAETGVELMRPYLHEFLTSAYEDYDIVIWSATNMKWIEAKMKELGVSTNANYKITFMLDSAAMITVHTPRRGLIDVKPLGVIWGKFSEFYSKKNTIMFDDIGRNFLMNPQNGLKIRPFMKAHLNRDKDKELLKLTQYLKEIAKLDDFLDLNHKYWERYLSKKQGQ
UniProt Q8IX04: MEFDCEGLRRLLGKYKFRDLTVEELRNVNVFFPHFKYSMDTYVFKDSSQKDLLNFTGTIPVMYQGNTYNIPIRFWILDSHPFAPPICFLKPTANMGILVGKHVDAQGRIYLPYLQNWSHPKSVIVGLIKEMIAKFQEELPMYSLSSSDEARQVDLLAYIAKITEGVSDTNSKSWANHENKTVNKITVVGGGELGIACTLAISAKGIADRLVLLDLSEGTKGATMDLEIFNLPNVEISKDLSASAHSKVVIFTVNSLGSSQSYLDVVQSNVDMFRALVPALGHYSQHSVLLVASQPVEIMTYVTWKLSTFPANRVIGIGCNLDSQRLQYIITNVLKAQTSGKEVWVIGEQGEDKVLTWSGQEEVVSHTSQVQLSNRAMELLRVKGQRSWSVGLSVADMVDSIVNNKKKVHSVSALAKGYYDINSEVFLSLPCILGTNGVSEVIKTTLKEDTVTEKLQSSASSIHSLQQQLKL
UniProt Q9HAU5: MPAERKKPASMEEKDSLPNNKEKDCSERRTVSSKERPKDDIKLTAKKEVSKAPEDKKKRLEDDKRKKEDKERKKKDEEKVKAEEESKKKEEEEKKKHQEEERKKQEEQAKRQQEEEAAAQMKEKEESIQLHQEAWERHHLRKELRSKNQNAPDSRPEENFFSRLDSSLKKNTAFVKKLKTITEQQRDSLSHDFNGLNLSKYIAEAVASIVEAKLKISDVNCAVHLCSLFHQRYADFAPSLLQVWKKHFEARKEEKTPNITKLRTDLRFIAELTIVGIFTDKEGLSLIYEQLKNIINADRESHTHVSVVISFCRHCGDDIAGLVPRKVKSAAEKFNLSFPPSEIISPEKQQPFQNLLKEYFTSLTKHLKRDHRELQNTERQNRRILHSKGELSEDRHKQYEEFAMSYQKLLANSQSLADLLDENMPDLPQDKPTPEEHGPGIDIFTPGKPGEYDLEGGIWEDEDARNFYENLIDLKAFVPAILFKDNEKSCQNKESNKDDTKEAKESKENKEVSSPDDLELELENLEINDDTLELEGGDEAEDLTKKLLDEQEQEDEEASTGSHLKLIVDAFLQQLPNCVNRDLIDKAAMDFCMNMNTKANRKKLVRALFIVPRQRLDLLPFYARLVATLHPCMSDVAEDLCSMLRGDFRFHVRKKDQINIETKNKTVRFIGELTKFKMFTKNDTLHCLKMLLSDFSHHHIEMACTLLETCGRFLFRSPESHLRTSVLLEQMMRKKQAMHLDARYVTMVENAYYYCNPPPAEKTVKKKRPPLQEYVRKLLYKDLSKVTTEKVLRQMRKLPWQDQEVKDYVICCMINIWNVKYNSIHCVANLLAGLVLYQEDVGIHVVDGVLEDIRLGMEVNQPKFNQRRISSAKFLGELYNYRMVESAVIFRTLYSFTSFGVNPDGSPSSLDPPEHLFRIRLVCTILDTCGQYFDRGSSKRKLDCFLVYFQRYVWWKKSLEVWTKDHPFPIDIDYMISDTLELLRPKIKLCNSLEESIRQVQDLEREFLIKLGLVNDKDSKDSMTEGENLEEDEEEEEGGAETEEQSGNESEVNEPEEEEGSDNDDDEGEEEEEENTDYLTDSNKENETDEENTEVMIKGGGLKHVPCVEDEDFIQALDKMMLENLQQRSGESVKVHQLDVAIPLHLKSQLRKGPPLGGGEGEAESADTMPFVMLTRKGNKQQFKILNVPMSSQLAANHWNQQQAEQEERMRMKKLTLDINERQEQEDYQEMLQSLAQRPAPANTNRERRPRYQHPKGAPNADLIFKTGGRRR

Assays:
Assay in all cases: log2 fold change, soluble protein after heating vs DMSO (PISA); higher = thermal stabilisation; K562 cells, 10 uM, 30 min; active = over 0.2 and 3.5 SD of the protein, either way, in both replicates (recomputed)
bafetinib = compound: Cc1ccc(NC(=O)c2ccc(CN3CC[C@H](N(C)C)C3)c(C(F)(F)F)c2)cc1Nc1nccc(-c2cncnc2)n1 [bafetinib]
In short: (§1)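 Quantification of soluble protein used TMTpro 16plex LC-MS/MS, with channel sums equalised. Samples were the supernatant after 21,000xg for 90 min of pooled aliquots from K562 cells (2×10^6 cells/mL) treated with 10 μM compound for 30 min, heated for 3 min over 48°C-58°C, and extracted in PBS with 0.5% NP-40 at 4°C. Values, from duplicates, describe thermal stability against control samples on a log2 fold-change scale.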

[1] = compound: Cc1cccc(CC(=O)N2CCc3c2ccc(-c2cn(C)c4ncnc(N)c24)c3F)n1
In short: as §1

nilotinib = compound: Cc1cn(-c2cc(NC(=O)c3ccc(C)c(Nc4nccc(-c5cccnc5)n4)c3)cc(C(F)(F)F)c2)cn1 [nilotinib]
In short: as §1

[2] = compound: Cc1nc(Nc2n[nH]c3c2CN(C(=O)N[C@H](CN(C)C)c2ccccc2)C3(C)C)c2sccc2n1
In short: as §1

dasatinib = compound: Cc1nc(Nc2ncc(C(=O)Nc3c(C)cccc3Cl)s2)cc(N2CCN(CCO)CC2)n1 [dasatinib]
In short: as §1

[3] = compound: Cc1ncc(-c2ccnc(Nc3ccc(S(C)(=O)=O)cc3)n2)n1C(C)C
In short: as §1

[4] = compound: Cn1cc(-c2ccc3c(c2)CCN3C(=O)Cc2cccc(C(F)(F)F)c2)c2c(N)ncnc21
In short: as §1

[5] = compound: Cn1cc(-c2ccc3nnc(C(F)(F)c4ccc5ncccc5c4)n3n2)cn1
In short: as §1

tipifarnib = compound: Cn1cncc1[C@@](N)(c1ccc(Cl)cc1)c1ccc2c(c1)c(-c1cccc(Cl)c1)cc(=O)n2C [tipifarnib]
In short: as §1

mubritinib = compound: FC(F)(F)c1ccc(/C=C/c2nc(COc3ccc(CCCCn4ccnn4)cc3)co2)cc1 [mubritinib]
In short: as §1

[6] = compound: NC(=O)Nc1cc(-c2cccc(F)c2)sc1C(=O)N[C@H]1CCCNC1
In short: as §1

[7] = compound: NC(=O)c1cnc(N[C@@H]2CCCC[C@@H]2N)nc1Nc1cccc(-n2nccn2)c1
In short: as §1

[8] = compound: NC1(c2ccc(-c3nc4ccn5c(=O)[nH]nc5c4cc3-c3ccccc3)cc2)CCC1
In short: as §1

[9] = compound: NCC(=O)Nc1ccc(-n2nc(C(F)(F)F)cc2-c2ccc3c(ccc4ccccc43)c2)cc1
In short: as §1

entinostat = compound: Nc1ccccc1NC(=O)c1ccc(CNC(=O)OCc2cccnc2)cc1 [entinostat]
In short: as §1

vorinostat = compound: O=C(CCCCCCC(=O)Nc1ccccc1)NO [vorinostat]
In short: as §1

citarinostat = compound: O=C(CCCCCCNC(=O)c1cnc(N(c2ccccc2)c2ccccc2Cl)nc1)NO [citarinostat]
In short: as §1

silmitasertib = compound: O=C(O)c1ccc2c(c1)nc(Nc1cccc(Cl)c1)c1ccncc12 [silmitasertib]
In short: as §1

[10] = compound: c1cc(OCCN2CCCCC2)cc(-c2n[nH]c3ccc(-c4nnc[nH]4)cc23)c1
In short: as §1

[11] = compound: O=C1NC(=O)C(c2cnc3ccccn23)=C1c1cn2c3c(cc(F)cc13)CN(C(=O)N1CCCCC1)CC2
In short: as §1

Measured: log2 fold change

UNC119B (UniProt A6NIH7)
inactive: bafetinib 0.424 | [1] -0.006 | nilotinib 0.16 | [2] -0.077 | dasatinib 0.069 | [3] 0.173 | [4] 0.428 | [5] -0.089 | tipifarnib -0.143 | mubritinib 0.14 | [6] -0.094 | [7] 0.039 | [8] 0.146 | [9] 0.038 | entinostat 0.012 | vorinostat -0.055 | citarinostat 0.043 | silmitasertib 0.031 | [10] 0.005

URI1 (UniProt O94763)
inactive: bafetinib 0.074 | [1] 0.091 | nilotinib 0.023 | [2] -0.006 | dasatinib -0.019 | [3] 0.074 | [4] 0.065 | [5] 0.04 | tipifarnib 0.044 | mubritinib 0.074 | [6] -0.042 | [7] -0.088 | [8] -0.01 | [9] -0.033 | entinostat -0.001 | vorinostat -0.025 | citarinostat 0.029 | silmitasertib 0.003 | [11] 0.117 | [10] -0.129

USP5 (UniProt P45974)
inactive: bafetinib -0.06 | [1] 0.008 | nilotinib 0.001 | [2] -0.041 | dasatinib -0.023 | [3] -0.005 | [4] 0.023 | [5] 0.027 | tipifarnib 0.016 | mubritinib 0.043 | [6] -0.041 | [7] -0.047 | [8] -0.053 | [9] -0.047 | entinostat 0.003 | vorinostat -0.003 | citarinostat 0.03 | silmitasertib 0.015 | [11] -0.041 | [10] -0.031

UNG (UniProt P13051)
inactive: bafetinib 0.002 | [1] -0.016 | dasatinib -0.185 | [4] -0.004 | mubritinib 0.139 | [6] -0.007 | [7] -0.043 | [8] -0.106 | [9] -0.222 | entinostat 0.053 | vorinostat 0.079 | silmitasertib 0.102 | [11] -0.02

UQCC3 (UniProt Q6UW78)
inactive: bafetinib -0.034 | [1] -0.104 | nilotinib 0.117 | [2] -0.151 | [3] 0.007 | [4] -0.148 | vorinostat -0.216 | [11] -0.125

UNK (UniProt Q9C0B0)
inactive: bafetinib -0.088 | [1] -0.026 | nilotinib -0.061 | [2] -0.208 | dasatinib -0.026 | [3] -0.033 | [4] -0.011 | tipifarnib 0.118 | mubritinib -0.041 | [6] -0.039 | [7] -0.032 | [8] -0.023 | [9] -0.071 | entinostat 0.027 | vorinostat 0.023 | citarinostat 0.079 | silmitasertib 0.073 | [10] -0.009

UBTF (UniProt P17480)
inactive: bafetinib 0.042 | [1] -0.016 | [4] -0.136 | [5] 0.024 | mubritinib 0.302 | [6] 0.049 | [7] 0.027 | [8] 0.145 | entinostat -0.048 | vorinostat 0.109 | silmitasertib 0.107

UTP18 (UniProt Q9Y5J1)
inactive: bafetinib 0.346 | [1] 0.07 | nilotinib 0.008 | [2] 0.159 | [3] 0.067 | [5] -0.197 | [6] 0.037 | entinostat -0.192 | vorinostat 0.031 | citarinostat -0.115 | [11] 0.12 | [10] -0.1

UQCRQ (UniProt O14949)
inactive: bafetinib -0.085 | [1] -0.021 | nilotinib 0.021 | [2] 0.004 | dasatinib 0.025 | [3] -0.008 | [4] 0.018 | [5] 0.018 | tipifarnib -0.051 | mubritinib 0.04 | [6] -0.012 | [7] 0.044 | [8] 0.026 | [9] 0.04 | entinostat -0.052 | vorinostat 0.003 | citarinostat 0.02 | silmitasertib -0.022 | [11] -0.047 | [10] -0.007

URM1 isoform 2 (UniProt Q9BTM9)
inactive: bafetinib -0.085 | [1] 0.2 | nilotinib 0.091 | [2] -0.082 | dasatinib -0.432 | [3] 0.018 | [5] 0.127 | mubritinib 0.088 | [6] 0.017 | [7] -0.005 | [8] -0.069 | [9] -0.099 | entinostat -0.006 | vorinostat 0.163 | citarinostat -0.025 | silmitasertib -0.077 | [10] -0.05

Quoted at random: 2 entries already listed, in no set order.
UTP18 (UniProt Q9Y5J1)
inactive: bafetinib 0.346 | [1] 0.07 | nilotinib 0.008 | [2] 0.159 | [3] 0.067 | [5] -0.197 | [6] 0.037 | entinostat -0.192 | vorinostat 0.031 | citarinostat -0.115 | [11] 0.12 | [10] -0.1

UBTF (UniProt P17480)
inactive: bafetinib 0.042 | [1] -0.016 | [4] -0.136 | [5] 0.024 | mubritinib 0.302 | [6] 0.049 | [7] 0.027 | [8] 0.145 | entinostat -0.048 | vorinostat 0.109 | silmitasertib 0.107

(listing goes on)

UBE3D (UniProt Q7Z6J8)
inactive: bafetinib -0.036 | [1] -0.047 | nilotinib 0.043 | [2] -0.001 | dasatinib -0.071 | [3] 0.037 | [4] 0.003 | [5] 0.013 | tipifarnib -0.049 | mubritinib 0.009 | [6] -0.019 | [7] 0.012 | [8] -0.004 | [9] 0.027 | entinostat 0.074 | vorinostat 0.056 | citarinostat 0.012 | silmitasertib 0.067 | [11] -0.032 | [10] -0.164

UBXN8 (UniProt O00124)
inactive: bafetinib -0.112 | [1] -0.086 | dasatinib -0.056 | [4] 0.017 | [5] -0.439 | tipifarnib 0.048 | [6] -0.139 | [7] -0.103 | [9] -0.344 | entinostat 0.046 | vorinostat -0.055 | citarinostat 0.037 | [11] -0.05 | [10] -0.143

VCP (UniProt P55072)
inactive: bafetinib -0.009 | [1] -0.023 | nilotinib 0.001 | [2] 0.01 | dasatinib 0.048 | [3] -0.017 | [4] 0.007 | [5] -0.009 | tipifarnib 0.039 | mubritinib 0 | [6] 0.052 | [7] 0.013 | [8] 0.024 | [9] 0.023 | entinostat -0.019 | vorinostat -0.033 | citarinostat -0.008 | silmitasertib -0.026 | [11] 0.006 | [10] -0.023

UFM1 (UniProt P61960)
inactive: bafetinib 0.045 | nilotinib -0.011 | [2] 0.025 | dasatinib -0.012 | [3] 0.026 | [4] 0.008 | [5] 0.007 | tipifarnib -0.061 | mubritinib 0.087 | [6] 0.045 | [7] -0.135 | [8] -0.073 | [9] -0.056 | entinostat 0.004 | citarinostat 0.056 | silmitasertib -0.033 | [11] -0.083 | [10] 0.015

URI1 isoform 4 (UniProt O94763)
inactive: bafetinib 0.137 | [1] -0.091 | nilotinib -0.142 | [2] -0.187 | dasatinib -0.06 | [3] 0.125 | [4] 0.37 | [5] 0.242 | [6] 0.08 | [7] 0 | [9] 0.045 | entinostat -0.016 | vorinostat -0.059 | citarinostat 0.033 | [11] 0.393 | [10] -0.168

ULK3 isoform 4 (UniProt Q6PHR2)
inactive: bafetinib 0.249 | [1] -0.3 | [5] 0.051 | tipifarnib 0.044 | [6] -0.543 | entinostat 0.169 | vorinostat 0.17 | citarinostat 0.025 | [11] -0.051 | [10] -0.044

UBLCP1 (UniProt Q8WVY7)
inactive: bafetinib 0.016 | [1] -0.034 | nilotinib -0.101 | [2] 0.074 | dasatinib -0.063 | [3] 0.116 | [4] -0.052 | [5] 0.006 | tipifarnib -0.072 | mubritinib 0.155 | [6] -0.084 | [7] -0.009 | [8] -0.165 | [9] -0.048 | entinostat 0.122 | vorinostat 0 | citarinostat 0.085 | silmitasertib 0.049 | [11] -0.142 | [10] 0.035

UEVLD (UniProt Q8IX04)
inactive: bafetinib 0.25 | [1] -0.062 | nilotinib -0.05 | [2] -0.116 | dasatinib -0.195 | [3] 0.093 | [4] -0.103 | mubritinib -0.203 | [6] 0.247 | [7] 0.037 | [8] 0.126 | [9] -0.078 | entinostat 0.079 | vorinostat 0.142 | citarinostat 0.061 | silmitasertib -0.133 | [11] 0.016 | [10] -0.095

UPF2 (UniProt Q9HAU5)
inactive: bafetinib 0.193 | [1] 0 | nilotinib -0.106 | [2] 0.142 | dasatinib -0.016 | [3] 0.061 | [4] -0.143 | [5] -0.085 | tipifarnib 0.015 | mubritinib -0.071 | [6] -0.008 | [7] 0.063 | [8] 0.189 | [9] 0.056 | entinostat 0.037 | vorinostat -0.092 | citarinostat -0.055 | silmitasertib 0.119 | [11] 0.19 | [10] -0.238
